Measurements taken from patent US20250114473A1 (priority 2023, published 2025).

Assay: general procedure: peptide synthesis; HOAt/DIPEA or HOBT/DIPEA (carbonate activation with B4NPC)
Settings: conjugation step

Substance: Mal-Val-Cit-PAB-PEG4-MMAF
- conjugation yield: 22%
